PubChem BioAssay AID743454, Peter MacCallum Cancer Centre, 2014
Here is one part, drawn at random, of about 18,000 reagents tested. 450 of all reagents (2.5%) count as active. 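Single biological run; no consistent viability z cut-off exists, so the class columns, not z-scores, define the calls.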

Purpose: 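Knock-downs lowering viability or raising caspase 3/7 activity in vorinostat-treated resistant cells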 (primary screen)
Cells: human HCT116-VR colon cancer cells, selected for vorinostat resistance
Knock-down reagent: siRNA pool against human genes, 40 nM siRNA pool
Time to read-out: vorinostat for 24 h, read-out about 72 h after transfection
Challenge: vorinostat at 2.5 µM final
Measured: 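Cell viability by CellTiter-Fluor and caspase 3/7 activity by luminescence, each scaled to mock wells per plate, duplicates averaged, then robust z-scored over all plates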
Scale: viability robust z-score: higher = more viable cells than screen typical; caspase robust z-score: higher = more caspase 3/7 activity than screen typical
Call rule: 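Hits are knock-downs in viability class RV1/RV2 or caspase class CA1/CA2, excluding ones that killed cells in the no-drug cell-count arm; hits then retested with single siRNAs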

| Gene | viability hit class | caspase hit class | viability robust z-score | caspase robust z-score | outcome |
| --- | --- | --- | --- | --- | --- |
| UBAP1 | no change | no change | 1.47 | 0.26 | inactive |
| DPP7 | no change | no change | -0.53 | -0.91 | inactive |
| ATP1A4 | no change | no change | 0.41 | 0.95 | inactive |
| KRTAP5-8 | no change | no change | -0.16 | 1.71 | inactive |
| KIRREL2 | no change | no change | -1.07 | -0.32 | inactive |
| EPN2 | no change | no change | 0.34 | 0.48 | inactive |
| ADGRE2 | no change | no change | -0.84 | 1.94 | inactive |
| POU2AF2 | no change | no change | 0.7 | 0.88 | inactive |
| KCMF1 | no change | no change | 1.49 | -0.24 | inactive |
| SLC29A3 | no change | no change | -1 | -0.48 | inactive |
| STPG4 | no change | no change | 0.26 | -0.46 | inactive |
| OBI1 | no change | no change | -0.11 | 0.6 | inactive |
| POP4 | no change | no change | -0.4 | -0.68 | inactive |
| BDH1 | no change | no change | 0.35 | -0.32 | inactive |
| TEF | no change | no change | 0.96 | -0.24 | inactive |
| PTK2B | no change | no change | 0.25 | 0 | inactive |
| NEUROD4 | no change | no change | -0.84 | 0.13 | inactive |
| UBE2E3 | no change | no change | -0.86 | 0.56 | inactive |
| CD44 | no change | no change | 1.28 | 1.16 | inactive |
| SCG2 | no change | no change | 0.44 | -0.6 | inactive |
| CILP2 | no change | no change | -1.52 | 2.07 | inactive |
| TBC1D14 | no change | no change | -1.42 | -0.44 | inactive |
| SYNE3 | no change | no change | 0.34 | 1.25 | inactive |
| LYRM2 | no change | no change | 1 | 1.17 | inactive |
| HRNR | no change | no change | -1.11 | 0.92 | inactive |
| TFRC | no change | no change | 0.2 | 0.36 | inactive |
| POU4F3 | no change | no change | -0.22 | -1.23 | inactive |
| ZNF79 | no change | no change | 0.44 | -0.37 | inactive |
| PTPRJ | no change | no change | -1.58 | -1.05 | inactive |
| MNAT1 | no change | no change | -0.31 | 0.2 | inactive |
| CYP26C1 | no change | no change | 0.32 | 0.37 | inactive |
| EXOC4 | no change | no change | 0.62 | 0.71 | inactive |
| FZR1 | no change | no change | 0.4 | 0.7 | inactive |
| ATP5IF1 | no change | no change | -1.19 | 0.73 | inactive |
| SLC17A6 | no change | no change | -0.2 | 1.82 | inactive |
| SSBP2 | no change | no change | 0.71 | 1.48 | inactive |
| PRPF4 | no change | no change | -0.97 | 2.68 | inactive |
| LIPK | no change | no change | -0.18 | -0.12 | inactive |
| CCDC66 | no change | no change | 0.43 | -0.15 | inactive |

A stretch from the list above:
| Gene | viability hit class | caspase hit class | viability robust z-score | caspase robust z-score | outcome |
| --- | --- | --- | --- | --- | --- |
| PTK2B | no change | no change | 0.25 | 0 | inactive |
| NEUROD4 | no change | no change | -0.84 | 0.13 | inactive |
